# According to the supplement of paper PMC8728848:
# This is one part of the list.
# What was measured:
# Experiment in all cases: glycan array binding signal (z-score within array); higher = stronger binding
# Conditions in all cases: glycan notation: IUPAC condensed, linker removed
# [1] = target: Gal(b1-4)GlcNAc(b1-3)Gal(b1-4)[Fuc(a1-3)GlcNAc(b1-6)]Gal(b1-4)Glc
# How it was run: (§1)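 Arrays were curated from the Consortium for Functional Glycomics database, 3228 in total, and kept only where the protein sequence was available. Binding is expressed as a within-array Z-score. This score was averaged across arrays of the same protein sequence at different concentrations or buffers and across linkers, and negative values can be read as non-binding.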
# [2] = target: Gal(b1-4)GlcNAc(b1-3)Gal(b1-4)[Fuc(a1-3)]GlcNAc(b1-3)Gal(b1-4)[Fuc(a1-3)]GlcNAc
# How it was run: as §1
# [3] = target: Gal(b1-4)GlcNAc(b1-3)GalNAc
# How it was run: as §1
# [4] = target: Gal(b1-4)GlcNAc(b1-3)[Fuc(a1-3)GlcNAc(b1-6)]Gal(b1-4)Glc
# How it was run: as §1
# [5] = target: Gal(b1-4)GlcNAc(b1-3)[Gal(b1-4)GlcNAc(b1-6)]Gal(b1-4)GlcNAc
# How it was run: as §1
# [6] = target: Gal(b1-4)GlcNAc(b1-3)[Gal(b1-4)GlcNAc(b1-6)]GalNAc
# How it was run: as §1
# [7] = target: Gal(b1-4)GlcNAc(b1-3)[GlcNAc(b1-6)]Gal(b1-4)GlcNAc
# How it was run: as §1
# [8] = target: Gal(b1-4)GlcNAc(b1-6)Gal(b1-4)GlcNAc
# How it was run: as §1
# [9] = target: Gal(b1-4)GlcNAc(b1-6)Gal(b1-4)GlcNAc(b1-6)GalNAc
# How it was run: as §1
# [10] = target: Gal(b1-4)GlcNAc(b1-6)GalNAc
# How it was run: as §1
# [11] = target: Gal(b1-4)GlcNAc(b1-6)[Gal(b1-3)]GalNAc
# How it was run: as §1
# [12] = target: Gal(b1-4)GlcNAc(b1-6)[Gal(b1-4)GlcNAc(b1-3)]GalNAc
# How it was run: as §1
# Gal(b1-4)GlcNAc6P = target: Gal(b1-4)GlcNAc6P
# How it was run: as §1
# Gal(b1-6)Gal = target: Gal(b1-6)Gal
# How it was run: as §1
# Gal3S(b1-3)GalNAc = target: Gal3S(b1-3)GalNAc
# How it was run: as §1
# Gal3S(b1-3)GlcNAc = target: Gal3S(b1-3)GlcNAc
# How it was run: as §1
# [13] = target: Gal3S(b1-3)[Fuc(a1-4)]GlcNAc
# How it was run: as §1
# Gal3S(b1-4)Glc = target: Gal3S(b1-4)Glc
# How it was run: as §1
# Gal3S(b1-4)Glc6S = target: Gal3S(b1-4)Glc6S
# How it was run: as §1
# Gal3S(b1-4)GlcNAc = target: Gal3S(b1-4)GlcNAc
# How it was run: as §1
# Gal3S(b1-4)GlcNAc6S = target: Gal3S(b1-4)GlcNAc6S
# How it was run: as §1
# [14] = target: Gal3S(b1-4)[Fuc(a1-3)]Glc
# How it was run: as §1
# [15] = target: Gal3S(b1-4)[Fuc(a1-3)]Glc6S
# How it was run: as §1
# [16] = target: Gal3S(b1-4)[Fuc(a1-3)]GlcNAc
# How it was run: as §1
# [17] = target: Gal3S(b1-4)[Fuc(a1-3)]GlcNAc6S
# How it was run: as §1
# Gal3S4S(b1-4)GlcNAc = target: Gal3S4S(b1-4)GlcNAc
# How it was run: as §1
# Gal3S6S(b1-4)GlcNAc = target: Gal3S6S(b1-4)GlcNAc
# How it was run: as §1
# Gal3S6S(b1-4)GlcNAc6S = target: Gal3S6S(b1-4)GlcNAc6S
# How it was run: as §1
# Gal4S(b1-4)GlcNAc = target: Gal4S(b1-4)GlcNAc
# How it was run: as §1
# Gal4S6S(b1-4)GlcNAc = target: Gal4S6S(b1-4)GlcNAc
# How it was run: as §1
# Gal6P(b1-4)GlcNAc = target: Gal6P(b1-4)GlcNAc
# How it was run: as §1
# Gal6S(b1-3)GlcNAc = target: Gal6S(b1-3)GlcNAc
# How it was run: as §1
# Gal6S(b1-3)GlcNAc6S = target: Gal6S(b1-3)GlcNAc6S
# How it was run: as §1
# Gal6S(b1-4)Glc = target: Gal6S(b1-4)Glc
# How it was run: as §1
# Gal6S(b1-4)Glc6S = target: Gal6S(b1-4)Glc6S
# How it was run: as §1
# Gal6S(b1-4)GlcNAc = target: Gal6S(b1-4)GlcNAc
# How it was run: as §1
# Gal6S(b1-4)GlcNAc6S = target: Gal6S(b1-4)GlcNAc6S
# How it was run: as §1
# GalNAc(a1-3)Gal = target: GalNAc(a1-3)Gal
# How it was run: as §1
# GalNAc(a1-3)GalNAc = target: GalNAc(a1-3)GalNAc
# How it was run: as §1
# [18] = target: GalNAc(a1-3)GalNAc(a1-3)Gal(a1-4)Gal(b1-4)GlcNAc
# How it was run: as §1
# [19] = target: GalNAc(a1-3)GalNAc(b1-3)Gal(a1-4)Gal(b1-4)Glc
# How it was run: as §1
# [20] = target: GalNAc(a1-3)GalNAc(b1-3)Gal(a1-4)Gal(b1-4)GlcNAc
# How it was run: as §1
# GalNAc(b1-3)Gal = target: GalNAc(b1-3)Gal
# How it was run: as §1
# [21] = target: GalNAc(b1-3)Gal(a1-4)Gal(b1-4)GlcNAc
# How it was run: as §1
# [22] = target: GalNAc(b1-3)Gal(a1-4)Gal(b1-4)GlcNAc(b1-3)Gal(b1-4)Glc
# How it was run: as §1
binder,measurement,setting,value
GST Gap3 (Streptococcus parasanguinis) (protein) MTKQLISEIYWNEIRKGENYLYGSQIKFQEDLVNFYNPQLASGKPIVTFKSRTNYQGDRHSPDLPILIQGNRYLLEYQIDAVPANSFFLQLDFFNRQAEQIESIVLRNSGESFIFPKDTFTYTLTLMSAGCQSVTYQKFMIYDINDEEKKNHIVENRYLRELLPKDLDLVKNLIEYI,glycan array binding signal (z-score),[1],-0.093
same,glycan array binding signal (z-score),[2],-0.128
same,glycan array binding signal (z-score),[3],0.105
same,glycan array binding signal (z-score),[4],-0.203
same,glycan array binding signal (z-score),[5],0.441
same,glycan array binding signal (z-score),[6],0.279
same,glycan array binding signal (z-score),[7],-0.023
same,glycan array binding signal (z-score),[8],-0.359
same,glycan array binding signal (z-score),[9],-0.125
same,glycan array binding signal (z-score),[10],0.816
same,glycan array binding signal (z-score),[11],-0.428
same,glycan array binding signal (z-score),[12],-0.18
same,glycan array binding signal (z-score),Gal(b1-4)GlcNAc6P,-0.287
same,glycan array binding signal (z-score),Gal(b1-6)Gal,-0.015
same,glycan array binding signal (z-score),Gal3S(b1-3)GalNAc,-0.28
same,glycan array binding signal (z-score),Gal3S(b1-3)GlcNAc,-0.429
same,glycan array binding signal (z-score),[13],0.041
same,glycan array binding signal (z-score),Gal3S(b1-4)Glc,-0.47
same,glycan array binding signal (z-score),Gal3S(b1-4)Glc6S,-0.055
same,glycan array binding signal (z-score),Gal3S(b1-4)GlcNAc,0.19
same,glycan array binding signal (z-score),Gal3S(b1-4)GlcNAc6S,0.277
same,glycan array binding signal (z-score),[14],-0.245
same,glycan array binding signal (z-score),[15],1.61
same,glycan array binding signal (z-score),[16],-0.723
same,glycan array binding signal (z-score),[17],-0.47
same,glycan array binding signal (z-score),Gal3S4S(b1-4)GlcNAc,0.8
same,glycan array binding signal (z-score),Gal3S6S(b1-4)GlcNAc,0.121
same,glycan array binding signal (z-score),Gal3S6S(b1-4)GlcNAc6S,0.367
same,glycan array binding signal (z-score),Gal4S(b1-4)GlcNAc,-0.319
same,glycan array binding signal (z-score),Gal4S6S(b1-4)GlcNAc,0.4
same,glycan array binding signal (z-score),Gal6P(b1-4)GlcNAc,-0.491
same,glycan array binding signal (z-score),Gal6S(b1-3)GlcNAc,-0.206
same,glycan array binding signal (z-score),Gal6S(b1-3)GlcNAc6S,0.07
same,glycan array binding signal (z-score),Gal6S(b1-4)Glc,0.03
same,glycan array binding signal (z-score),Gal6S(b1-4)Glc6S,0.308
same,glycan array binding signal (z-score),Gal6S(b1-4)GlcNAc,0.084
same,glycan array binding signal (z-score),Gal6S(b1-4)GlcNAc6S,0.129
same,glycan array binding signal (z-score),GalNAc(a1-3)Gal,0.36
same,glycan array binding signal (z-score),GalNAc(a1-3)GalNAc,-0.227
same,glycan array binding signal (z-score),[18],-0.37
same,glycan array binding signal (z-score),[19],-0.329
same,glycan array binding signal (z-score),[20],0.043
same,glycan array binding signal (z-score),GalNAc(b1-3)Gal,0.088
same,glycan array binding signal (z-score),[21],-0.177
same,glycan array binding signal (z-score),[22],-0.089

# Rewritten as tab-separated lines: part of the list above
binder	measurement	setting	value
GST Gap3 (Streptococcus parasanguinis) (protein) MTKQLISEIYWNEIRKGENYLYGSQIKFQEDLVNFYNPQLASGKPIVTFKSRTNYQGDRHSPDLPILIQGNRYLLEYQIDAVPANSFFLQLDFFNRQAEQIESIVLRNSGESFIFPKDTFTYTLTLMSAGCQSVTYQKFMIYDINDEEKKNHIVENRYLRELLPKDLDLVKNLIEYI	glycan array binding signal (z-score)	[4]	-0.203
same	glycan array binding signal (z-score)	[8]	-0.359
same	glycan array binding signal (z-score)	[9]	-0.125
same	glycan array binding signal (z-score)	[11]	-0.428
same	glycan array binding signal (z-score)	[12]	-0.18
same	glycan array binding signal (z-score)	Gal(b1-4)GlcNAc6P	-0.287
same	glycan array binding signal (z-score)	Gal3S4S(b1-4)GlcNAc	0.8
same	glycan array binding signal (z-score)	Gal6S(b1-3)GlcNAc	-0.206
same	glycan array binding signal (z-score)	Gal6S(b1-3)GlcNAc6S	0.07
same	glycan array binding signal (z-score)	Gal6S(b1-4)GlcNAc6S	0.129
same	glycan array binding signal (z-score)	GalNAc(a1-3)GalNAc	-0.227
